Data taken from ChEMBL document CHEMBL3988442, “University of Dundee, Small-Polar-MMV Screening Library” (2021).

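Assay on Mycobacterium tuberculosis, filed only as a heat shock assay from Cornell; the read-out is not stated. The concentration is filed as 10 mM, unlikely as a test dose, so the dose is not known. Higher reads as stronger inhibition (inferred: compounds with an IC50 in retests scored well above the rest). About 69,000 compounds were tested under these conditions; 1.4% (about 930) showed 50% or more at least once.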

Results are given as percent effect.
The record does not define 0% and 100%; most values in the screen are far below 50% and negative numbers occur (in some assays of this library far below -100).
The compounds are a random part of those screened.

{"compound": "CCc1nnc2n1CCN(CC(=O)Nc1cc(C)nn1C)C2", "Percent Effect": -22.96}
{"compound": "CN(C)c1cc(C2CCCNC2)ccn1.Cl.Cl", "stereo": "stereo not given", "Percent Effect": -5.757}
{"compound": "CCC(=O)N1CCC2(CC1)COCCN2Cc1ccc(F)cc1.O=C(O)C(F)(F)F", "Percent Effect": -30.34}
{"compound": "Fc1ccc(CNCc2nnc3n2CC(C(F)(F)F)CC3)c(F)c1", "stereo": "stereo not given", "Percent Effect": -22.8}
{"compound": "CCOC(=O)NC(CNC(=O)c1cccc(C)n1)CC(C)C", "stereo": "stereo not given", "Percent Effect": 11.99}
{"compound": "CCOCC(=O)N1CCCn2c(CN3CCCCC3)nnc2C1", "Percent Effect": -6.277}
{"compound": "O=C(O)C(F)(F)F.[H][C@]12CCC[C@@]1(COc1ccccn1)CN(S(C)(=O)=O)C2", "Percent Effect": -22.87}
{"compound": "CN1CC(C(=O)NCc2ccc(Br)cc2F)CC1=O", "stereo": "stereo not given", "Percent Effect": 1.659}
{"compound": "CN(C)S(=O)(=O)N1CCCCCC1c1cc(-c2ccc(F)cc2)no1", "stereo": "stereo not given", "Percent Effect": 13.78}
{"compound": "Cc1cc2nc(-c3ccccc3)cc(NCC3CCS(=O)(=O)C3)n2n1", "stereo": "stereo not given", "Percent Effect": 5.632}
{"compound": "CN1C[C@@H](C(=O)NC(C)(C)C)[C@@]2(COc3ccc(F)cc3C2=O)C1", "Percent Effect": 1.368}
{"compound": "Cc1cc(NCc2ccccc2CN2CCCCC2)n2ncnc2n1", "Percent Effect": 14.92}
{"compound": "Clc1ccc(OCCNC2(c3ccc(Br)cc3)CCOCC2)cc1", "Percent Effect": 73.72}
{"compound": "OCC1(CC2CC2)CCCN(Cc2ccc(C(F)(F)F)nc2)C1", "stereo": "stereo not given", "Percent Effect": -14.86}
{"compound": "Cc1cc(C(=O)NCCN2CCCCC2C)nn1C(C)(C)C", "stereo": "stereo not given", "Percent Effect": -39.04}
{"compound": "CCN1CCN(C(=O)NCc2ccccc2Cn2cncn2)CC1", "Percent Effect": 0.4843}
{"compound": "Cc1nc(S(=O)(=O)N2CCC3(CCCCC3)C2)cn1C", "Percent Effect": -5.63}
{"compound": "Cc1nc(C)n(C2CCCN(C(=O)c3ncoc3C(C)C)C2)n1", "stereo": "stereo not given", "Percent Effect": -19.77}
{"compound": "CCc1nnc(CN2CCC3(CCC(=O)N(C4CCCC4)C3)CC2)o1", "Percent Effect": -8.342}
{"compound": "Cc1cc(C2CCC2)nc(NCCC23CCCN2CCC3)n1", "Percent Effect": -11.48}
{"compound": "CN1CCN(C(=O)c2cn(Cc3ccccc3)c3ncccc23)CC1", "Percent Effect": 20.81}
{"compound": "Cc1cnc(CNCc2cnc(-c3ccccc3C)s2)cn1", "Percent Effect": 4.879}
{"compound": "CCn1cc(-c2cc(C(F)F)n3nc(CC(=O)O)nc3n2)cn1", "Percent Effect": 38.2}
{"compound": "COc1ccc(NC(=O)NCc2cccc(N(C)C)n2)c(Cl)c1", "Percent Effect": 6.584}
{"compound": "CCn1nccc1CNc1[nH]cnc2nncc1-2", "Percent Effect": 14.8}
{"compound": "COc1cccc(OCCc2nc3c(cc2C(N)=O)CCC3)c1", "Percent Effect": -15.14}
{"compound": "O=C(O)C(F)(F)F.[H][C@]12CCC[C@@]1(COc1ccccn1)CN(S(=O)(=O)C1CC1)C2", "Percent Effect": -0.8194}
{"compound": "NC(=O)C1CCN(C(=O)CCn2ccc3ccc(Br)cc32)CC1", "Percent Effect": -18.91}
{"compound": "CC(C)c1cc(C(=O)N2CCc3ccccc3C2C(=O)O)n(C)n1", "stereo": "stereo not given", "Percent Effect": 5.965}
{"compound": "Cc1ccccc1N1CCCN(C(=O)CCCS(N)(=O)=O)CC1", "Percent Effect": -4.94}
{"compound": "O=C(CCc1cc(O)no1)N1CCC(Cc2ccc(F)cc2)CC1", "Percent Effect": 4.65}
{"compound": "Cc1ccc(C2(C(=O)NCCCn3cccn3)CCOCC2)cc1", "Percent Effect": -2.135}
{"compound": "CC1(C)CNC(=O)c2nc(CCCN3CCCC3)[nH]c2C1", "Percent Effect": 21.82}
{"compound": "CCc1nc(C2CCCN2C(=O)CCc2cccs2)no1", "stereo": "stereo not given", "Percent Effect": 23.96}
{"compound": "CN(C)C(=O)CN1CCC2(CCCN(Cc3ccoc3)C2)C1=O", "stereo": "stereo not given", "Percent Effect": 4.409}
{"compound": "CCC[C@@H]1CN(C(=O)c2ccccc2-c2ncc[nH]2)C[C@H]1N(C)C", "Percent Effect": -38.79}
{"compound": "O=C(NC1CCc2ccccc2C1)C1CCN(Cc2ccco2)CC1", "stereo": "stereo not given", "Percent Effect": 13.72}
{"compound": "Cc1cnn(CCNCC(=O)NC(c2ccccc2)c2ccccc2)c1", "Percent Effect": 12.36}
{"compound": "O=C(NCc1cc(C2CC2)n(C2CCCC2)n1)C1CC1", "Percent Effect": 8.154}
{"compound": "CCOc1ccc(Cc2c(O)nc(SC)n(-c3ccccc3)c2=O)cc1", "Percent Effect": 9.699}
{"compound": "CN1CCN([C@@H]2CCN(CC3CCOC3)[C@H]2Cc2cnn(C)c2)CC1.O=C(O)C(F)(F)F.O=C(O)C(F)(F)F.O=C(O)C(F)(F)F", "stereo": "stereo not given in full", "Percent Effect": -22.58}
{"compound": "CC(C)OCCCNC(=O)NCc1cccc(-n2ccnc2)c1", "Percent Effect": -13.7}
{"compound": "O=C(CO)N1CCC(CCc2ccnc(Nc3cnccn3)c2)CC1", "Percent Effect": 0.9259}
{"compound": "Cc1ccc(NC(=O)NCCn2cnc(C)c(C)c2=O)cc1F", "Percent Effect": -3.904}
{"compound": "CCOc1ccc2nc(CN3CCC(CN)C3)ccc2c1", "stereo": "stereo not given", "Percent Effect": 106.9}
{"compound": "[H][C@]12C[C@@H](CN3CCCC3)N(C)[C@@]1([H])CCN(C(=O)c1cnccn1)C2", "Percent Effect": 11.44}
{"compound": "Cc1nn(C2CCS(=O)(=O)C2)c(O)c1Cc1ccccc1Cl", "stereo": "stereo not given", "Percent Effect": -7.348}
{"compound": "Cc1csc(N2CCN(CC(=O)Nc3cc(C)nn3C)CC2C)n1", "stereo": "stereo not given", "Percent Effect": -21.26}
{"compound": "COCCN(Cc1nc2c(cnn2C)c(=O)[nH]1)Cc1ccco1", "Percent Effect": 37.02}
{"compound": "CCOc1ccc(NC(=O)c2cnc(N3CCCC3)nc2C)cc1", "Percent Effect": 17.16}
{"compound": "O=C(O)c1nnn(-c2ccc(F)c(F)c2)c1-c1ccncc1", "Percent Effect": 8.669}
{"compound": "CC(C)N1CCC(Cc2cc(-c3ccccc3C(=O)O)ncn2)CC1", "Percent Effect": -22.11}
{"compound": "CCn1ccnc1CN(C)c1cc(C2CCCNC2)nc(C)n1", "stereo": "stereo not given", "Percent Effect": -18.52}
{"compound": "Cc1cc(-c2ccc(C(=O)O)cc2)nc(C2CCCN(C(C)C)C2)n1", "stereo": "stereo not given", "Percent Effect": -2.361}
{"compound": "COc1c(C)cnc(CNC(=O)c2cc(C)nc3c2c(C)nn3C)c1C", "Percent Effect": 6.984}
{"compound": "CCC(=O)Nc1ccc2c(c1)CN(C(=O)c1ccco1)CC2", "Percent Effect": -16.17}
{"compound": "CN(CCc1ccccn1)c1cc(N2CCCCC2)ncn1", "Percent Effect": -16.09}
{"compound": "CCCOCCNc1nc2c(s1)c(C)nn2C", "Percent Effect": -17.49}
{"compound": "Cc1nc(C)c(CN2CCOC(CN(C)c3cccnn3)C2)s1", "stereo": "stereo not given", "Percent Effect": 12.12}

For reference, 3 entries once more:

Compound,Percent Effect
Cc1nc(C)c(CN2CCOC(CN(C)c3cccnn3)C2)s1 (stereo not given),12.12
CCOc1ccc2nc(CN3CCC(CN)C3)ccc2c1 (stereo not given),106.9
Cc1cc(NCc2ccccc2CN2CCCCC2)n2ncnc2n1,14.92